{"source": "PubChem BioAssay AID1224828 – NIAID, 2016", "assay": "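Regulators linking TLR4 signalling to p65 nuclear translocation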 (primary screen)", "cells": "mouse RAW264.7 G9 macrophage reporter cells (GFP-p65, Tnf promoter-mCherry)", "reagent": "siRNA pool against mouse genes, 100 nM", "time to read-out": "2 days siRNA transfection, then 40 min LPS before fixation", "treatment": "LPS (Salmonella minnesota R595) at 10 ng/ml", "read-out": "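Imaged p65 nuclear translocation ratio, normalised to the plate median, converted to robust z-scores and averaged across two replicates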", "reading the numbers": "p65 translocation robust z-score: higher = more nuclear NF-kappaB p65 after LPS than the plate median; nuclear/cytoplasmic p65 ratio: higher = more nuclear NF-kappaB p65", "active means": "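Called active when z exceeds 3.3 or falls under -1.56 (median of Tlr4 controls), giving activity score of at least 50; no calls for control wells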", "calls": "active = hit (p65 shift raised or lowered); inactive = no clear change", "note": "This is a random part of about 17,000 reagents. 762 of all reagents (4.5%) count as active. 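Active calls include both raised and lowered p65 entry, mostly lowered; wells with fewer than 50 cells lack a z-score.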 Raw values vary from plate to plate and are shown uncorrected. A number with no mark means an inactive call. The numbers tell different reagents against one gene apart."}
{"target gene": "Slc25a12", "reagent": 1, "p65 translocation robust z-score": 0.53, "nuclear/cytoplasmic p65 ratio, rep 1": 1.48, "nuclear/cytoplasmic p65 ratio, rep 2": 1.32, "low cell count flag": "enough cells to score"}
{"target gene": "Agbl2 (ATP/GTP binding protein-like 2)", "reagent": 1, "p65 translocation robust z-score": 2.55, "nuclear/cytoplasmic p65 ratio, rep 1": 1.64, "nuclear/cytoplasmic p65 ratio, rep 2": 1.96, "low cell count flag": "enough cells to score"}
{"target gene": "Lratd2 (LRAT domain containing 2)", "reagent": 1, "p65 translocation robust z-score": -0.74, "nuclear/cytoplasmic p65 ratio, rep 1": 1.43, "nuclear/cytoplasmic p65 ratio, rep 2": 1.48, "low cell count flag": "enough cells to score"}
{"target gene": "Slc6a18", "reagent": 1, "p65 translocation robust z-score": 0.04, "nuclear/cytoplasmic p65 ratio, rep 1": 1.37, "nuclear/cytoplasmic p65 ratio, rep 2": 1.26, "low cell count flag": "enough cells to score"}
{"target gene": "Magea7-ps (MAGE family member A7, pseudogene)", "reagent": 1, "p65 translocation robust z-score": -0.64, "nuclear/cytoplasmic p65 ratio, rep 1": 1.56, "nuclear/cytoplasmic p65 ratio, rep 2": 1.5, "low cell count flag": "enough cells to score"}
{"target gene": "Sp8 (trans-acting transcription factor 8)", "reagent": 1, "p65 translocation robust z-score": 1.07, "nuclear/cytoplasmic p65 ratio, rep 1": 1.54, "nuclear/cytoplasmic p65 ratio, rep 2": 1.37, "low cell count flag": "enough cells to score"}
{"target gene": "Serpinb5 (serine (or cysteine) peptidase inhibitor, clade B, member 5)", "reagent": 1, "p65 translocation robust z-score": 0.63, "nuclear/cytoplasmic p65 ratio, rep 1": 1.82, "nuclear/cytoplasmic p65 ratio, rep 2": 1.47, "low cell count flag": "enough cells to score"}
{"target gene": "Olfm3 (olfactomedin 3)", "reagent": 1, "p65 translocation robust z-score": 0.44, "nuclear/cytoplasmic p65 ratio, rep 1": 1.71, "nuclear/cytoplasmic p65 ratio, rep 2": 1.66, "low cell count flag": "enough cells to score"}
{"target gene": "Sytl1 (synaptotagmin-like 1)", "reagent": 1, "nuclear/cytoplasmic p65 ratio, rep 1": 1.25, "nuclear/cytoplasmic p65 ratio, rep 2": 0.995, "low cell count flag": "fewer than 50 cells per well; well left out of scoring"}
{"target gene": "Fmo4 (flavin containing monooxygenase 4)", "reagent": 1, "p65 translocation robust z-score": -0.06, "nuclear/cytoplasmic p65 ratio, rep 1": 1.46, "nuclear/cytoplasmic p65 ratio, rep 2": 1.33, "low cell count flag": "enough cells to score"}

Reformatted: entries from further up.
Lratd2 (LRAT domain containing 2)
- p65 translocation robust z-score: -0.74
- nuclear/cytoplasmic p65 ratio, rep 1: 1.43
- nuclear/cytoplasmic p65 ratio, rep 2: 1.48
- low cell count flag: enough cells to score

Slc6a18
- p65 translocation robust z-score: 0.04
- nuclear/cytoplasmic p65 ratio, rep 1: 1.37
- nuclear/cytoplasmic p65 ratio, rep 2: 1.26
- low cell count flag: enough cells to score

The listing continues:
{"target gene": "Rwdd3 (RWD domain containing 3)", "reagent": 1, "p65 translocation robust z-score": 2.4, "nuclear/cytoplasmic p65 ratio, rep 1": 1.72, "nuclear/cytoplasmic p65 ratio, rep 2": 1.78, "low cell count flag": "enough cells to score"}
{"target gene": "Rwdd3 (RWD domain containing 3)", "reagent": 2, "nuclear/cytoplasmic p65 ratio, rep 1": 1.02, "nuclear/cytoplasmic p65 ratio, rep 2": 1.01, "low cell count flag": "fewer than 50 cells per well; well left out of scoring"}
{"target gene": "Plg (plasminogen)", "reagent": 1, "p65 translocation robust z-score": -0.52, "nuclear/cytoplasmic p65 ratio, rep 1": 1.46, "nuclear/cytoplasmic p65 ratio, rep 2": 1.31, "low cell count flag": "enough cells to score"}
{"target gene": "Pcdhb7 (protocadherin beta 7)", "reagent": 1, "p65 translocation robust z-score": 0.14, "nuclear/cytoplasmic p65 ratio, rep 1": 1.46, "nuclear/cytoplasmic p65 ratio, rep 2": 1.18, "low cell count flag": "enough cells to score"}
{"target gene": "Coq4 (coenzyme Q4)", "reagent": 1, "p65 translocation robust z-score": -1.17, "nuclear/cytoplasmic p65 ratio, rep 1": 1.37, "nuclear/cytoplasmic p65 ratio, rep 2": 1.55, "low cell count flag": "enough cells to score"}
{"target gene": "Hoxa3 (homeobox A3)", "reagent": 1, "p65 translocation robust z-score": -0.79, "nuclear/cytoplasmic p65 ratio, rep 1": 1.58, "nuclear/cytoplasmic p65 ratio, rep 2": 1.38, "low cell count flag": "enough cells to score"}
{"target gene": "Mgat2 (mannoside acetylglucosaminyltransferase 2)", "reagent": 1, "p65 translocation robust z-score": -1.27, "nuclear/cytoplasmic p65 ratio, rep 1": 1.49, "nuclear/cytoplasmic p65 ratio, rep 2": 1.39, "low cell count flag": "enough cells to score"}
{"target gene": "D7Ertd413e (DNA segment, Chr 7, ERATO Doi 413, expressed)", "reagent": 1, "p65 translocation robust z-score": -1.29, "nuclear/cytoplasmic p65 ratio, rep 1": 1.36, "nuclear/cytoplasmic p65 ratio, rep 2": 1.37, "low cell count flag": "enough cells to score"}
{"target gene": "Pabpc4 (poly(A) binding protein, cytoplasmic 4)", "reagent": 1, "nuclear/cytoplasmic p65 ratio, rep 1": 1.43, "nuclear/cytoplasmic p65 ratio, rep 2": 1.26, "low cell count flag": "fewer than 50 cells per well; well left out of scoring"}
{"target gene": "Tlr11 (toll-like receptor 11)", "reagent": 1, "p65 translocation robust z-score": -0.16, "nuclear/cytoplasmic p65 ratio, rep 1": 1.38, "nuclear/cytoplasmic p65 ratio, rep 2": 1.17, "low cell count flag": "enough cells to score"}
{"target gene": "Zfp709 (zinc finger protein 709)", "reagent": 1, "p65 translocation robust z-score": -0.15, "nuclear/cytoplasmic p65 ratio, rep 1": 1.53, "nuclear/cytoplasmic p65 ratio, rep 2": 1.84, "low cell count flag": "enough cells to score"}
